Assay results as given in PubChem BioAssay AID330 (DTP/NCI, 2004).
The list does not hold the whole screen: it gathers tests that were run many times, whatever their T/C, doses with no T/C, and many T/C values between a quarter and a half above the control. Further doses and runs are listed elsewhere. T/C gives the treated animals as a percentage of the vehicle group. Some entries give survivors of the animals treated and no T/C: the source holds a T/C of zero for them, seemingly a mark for toxic or unscored doses. Some doses without a T/C left all or most animals alive at the check, yet need not have been tolerated: the source hardly ever lists a survival T/C far under the control, and the zero likely stands for such cases as well. Survivors were counted at the toxicity check, usually on the fifth day, unless a day is given; later deaths do not show. Schedules are NCI's codes, read here as Q, the interval in days (D) or hours (H), X, the number of doses. Some doses were run more than once; the results are listed from low to high. Where survival is the endpoint, this PubChem deposit counts one and a half times the control or more as active, and values a quarter to a half above the control carry no call in these data; other NCI protocols may use other cut-offs. Some T/C values are followed by the survivors on the day toxicity was checked, most often the fifth; where none is given, no animal had died by that day. Marks such as (2×) give the number of equal values in this list.

Test system: P388 leukemia ip, CD2F1 mice, survival T/C
Experiment: NCI In Vivo Anticancer Drug Screen. Data for tumor model P388 Leukemia (intraperitoneal) in CD2F1 (CDF1) mice
Conditions: T/C endpoint: median survival time, higher T/C = longer survival
[1] = dose: 25.0 mg/kg/injection, schedule: Q01DX009 (ip), vehicle: Klucel (hydroxypropylcellulose) (HPC)

SMILES: O=P1(N(CCCl)CCCl)NCCCO1 (stereo not drawn)
- T/C (dose: 6.25 mg/kg/injection, schedule: Q01DX005 (ip), vehicle: saline, evaluated on day 30): 115, 126 [5 of 6 alive], 129, 148, 150 % of control
- T/C (dose: 6.25 mg/kg/injection, schedule: Q01DX005 (ip), vehicle: saline, evaluated on day 45): 124 and 133 % of control
- T/C (dose: 6.25 mg/kg/injection, schedule: Q01DX009 (ip), vehicle: saline): 136 % of control
- T/C (dose: 8.0 mg/kg/injection, schedule: Q01DX009 (ip), vehicle: saline): 137 % of control
- T/C (dose: 10.0 mg/kg/injection, schedule: Q04DX003 (ip), vehicle: saline): 126 % of control
- T/C (dose: 12.5 mg/kg/injection, schedule: Q01DX005 (ip), vehicle: saline, evaluated on day 30): 144, 148, 154 (2×), 165, 168, 203 % of control
- T/C (dose: 12.5 mg/kg/injection, schedule: Q01DX005 (ip), vehicle: saline, evaluated on day 45): 146 and 154 % of control
- T/C (dose: 12.5 mg/kg/injection, schedule: Q01DX009 (ip), vehicle: water): 148 % of control
- T/C (dose: 12.5 mg/kg/injection, schedule: Q04DX003 (ip), vehicle: saline, evaluated on day 30): 149 % of control
- T/C (dose: 12.5 mg/kg/injection, schedule: Q04DX003 (ip), vehicle: saline, evaluated on day 45): 125 and 137 % of control
- T/C (dose: 12.5 mg/kg/injection, schedule: Q04DX003 (ip), vehicle: saline, evaluated on day 50): 162 % of control
- T/C (dose: 17.3 mg/kg/injection, schedule: Q01DX005 (ip), vehicle: saline): 137 % of control
- T/C (dose: 20.0 mg/kg/injection, schedule: Q04DX003 (ip), vehicle: saline, evaluated on day 35): 145 % of control
- T/C (dose: 20.0 mg/kg/injection, schedule: Q04DX003 (ip), vehicle: saline, evaluated on day 45): 146 % of control
- T/C (dose: 25.0 mg/kg/injection, schedule: Q01DX005 (ip), vehicle: Klucel (hydroxypropylcellulose) (HPC), evaluated on day 30): 109, 118, 122, 126, 172, 181 (2×), 193, 196, 200 (2×), 203, 206, 208, 210 (2×), 212, 214, 215, 216, 216 [2 of 2 alive], 217, 218, 225, 228 (2×), 230 [2 of 3 alive], 233, 238, 240, 242, 243, 250, 269 % of control
- T/C (dose: 25.0 mg/kg/injection, schedule: Q01DX005 (ip), vehicle: Klucel (hydroxypropylcellulose) (HPC), evaluated on day 35): 333 % of control
- T/C (dose: 25.0 mg/kg/injection, schedule: Q01DX005 (ip), vehicle: saline, evaluated on day 30): 195, 201, 202, 212, 216, 220, 225, 262 % of control
- T/C (dose: 25.0 mg/kg/injection, schedule: Q01DX005 (ip), vehicle: saline, evaluated on day 45): 190 and 206 % of control [7 of 8 alive]
- T/C [1]: 116, 126, 135, 142, 149, 183, 192 (2×), 200, 205, 206, 212, 219, 223, 224, 228 (2×), 230, 233, 237, 245, 258, 265, 268, 270, 271, 276, 277, 285, 287, 291, 296, 329 % of control (2×)
- survivor count [1]: 6 of 6
- T/C (dose: 25.0 mg/kg/injection, schedule: Q01DX009 (ip), vehicle: saline): 167, 234, 291, 300 % of control
- T/C (dose: 25.0 mg/kg/injection, schedule: Q01DX009 (ip), vehicle: water): 132 % of control
- T/C (dose: 25.0 mg/kg/injection, schedule: Q04DX003 (ip), vehicle: saline, evaluated on day 30): 160 % of control
- T/C (dose: 25.0 mg/kg/injection, schedule: Q04DX003 (ip), vehicle: saline, evaluated on day 45): 170 and 179 % of control
- T/C (dose: 25.0 mg/kg/injection, schedule: Q04DX003 (ip), vehicle: saline, evaluated on day 50): 169 % of control
- T/C (dose: 25.0 mg/kg/injection, schedule: Q04DX003 (ip), vehicle: water): 137 % of control
- T/C (dose: 28.8 mg/kg/injection, schedule: Q01DX009 (ip), vehicle: saline): 130 % of control
- T/C (dose: 32.0 mg/kg/injection, schedule: Q01DX009 (ip), vehicle: saline, evaluated on day 5): 138 % of control
- T/C (dose: 32.0 mg/kg/injection, schedule: Q01DX009 (ip), vehicle: saline, evaluated on day 45): 133 % of control
- T/C (dose: 37.5 mg/kg/injection, schedule: Q01DX001 (ip), vehicle: saline): 119, 124, 134, 167 % of control
- T/C (dose: 40.0 mg/kg/injection, schedule: Q01DX005 (ip), vehicle: saline, evaluated on day 30): 89, 164, 214, 220, 221, 228, 235, 237 (3×), 238, 240, 250, 250 [4 of 6 alive], 254, 265 (2×), 267, 270, 283, 294 (2×), 300 (3×), 309 % of control
- T/C (dose: 40.0 mg/kg/injection, schedule: Q01DX005 (ip), vehicle: saline, evaluated on day 35): 350 % of control
- T/C (dose: 40.0 mg/kg/injection, schedule: Q01DX005 (ip), vehicle: saline, evaluated on day 60): 235 and 440 % of control
- survivor count (dose: 40.0 mg/kg/injection, schedule: Q01DX005 (ip), vehicle: saline): 6 of 6
- T/C (dose: 40.0 mg/kg/injection, schedule: Q01DX009 (ip), vehicle: saline, evaluated on day 30): 92, 109, 169, 225, 250, 260, 264, 265 (3×), 267, 270 (3×), 275, 276, 277, 285, 294 (2×), 297 (2×), 300 (3×), 300 [4 of 6 alive], 309 % of control
- T/C (dose: 40.0 mg/kg/injection, schedule: Q01DX009 (ip), vehicle: saline, evaluated on day 35): 350 % of control
- T/C (dose: 40.0 mg/kg/injection, schedule: Q01DX009 (ip), vehicle: saline, evaluated on day 60): 359 and 550 % of control
- survivor count (dose: 40.0 mg/kg/injection, schedule: Q01DX009 (ip), vehicle: saline): 6 of 6
- T/C (dose: 50.0 mg/kg/injection, schedule: Q01DX001 (ip), vehicle: Klucel (hydroxypropylcellulose) (HPC), evaluated on day 30): 101, 149, 151, 152, 156, 157 [2 of 3 alive], 163 (3×), 166 (2×), 179 (3×), 180, 181, 184 (2×), 189, 190 (3×), 194, 204, 205, 208, 212, 219, 240 % of control
- T/C (dose: 50.0 mg/kg/injection, schedule: Q01DX001 (ip), vehicle: Klucel (hydroxypropylcellulose) (HPC), evaluated on day 35): 175 % of control
- survivor count (dose: 50.0 mg/kg/injection, schedule: Q01DX001 (ip), vehicle: Klucel (hydroxypropylcellulose) (HPC)): 3 of 3 and 6 of 6
- T/C (dose: 50.0 mg/kg/injection, schedule: Q01DX001 (ip), vehicle: saline, evaluated on day 5): 111, 116, 135, 154 % of control
- T/C (dose: 50.0 mg/kg/injection, schedule: Q01DX001 (ip), vehicle: saline, evaluated on day 9): 99, 118, 123 % of control
